In publication doi:10.1101/2022.02.11.480108:
These are yes or no findings as the source states them, for the method shown. Some binding calls cover weakened binding; strength is not graded here.

The chains behind the UniProt entries cited, without tags or fusion partners. Where a name states a change or a piece, a line headed by the entry shows the natural chain unless it says otherwise. Residues count along the entry.
UniProt Q9Y697, 56-457, stated change not applied: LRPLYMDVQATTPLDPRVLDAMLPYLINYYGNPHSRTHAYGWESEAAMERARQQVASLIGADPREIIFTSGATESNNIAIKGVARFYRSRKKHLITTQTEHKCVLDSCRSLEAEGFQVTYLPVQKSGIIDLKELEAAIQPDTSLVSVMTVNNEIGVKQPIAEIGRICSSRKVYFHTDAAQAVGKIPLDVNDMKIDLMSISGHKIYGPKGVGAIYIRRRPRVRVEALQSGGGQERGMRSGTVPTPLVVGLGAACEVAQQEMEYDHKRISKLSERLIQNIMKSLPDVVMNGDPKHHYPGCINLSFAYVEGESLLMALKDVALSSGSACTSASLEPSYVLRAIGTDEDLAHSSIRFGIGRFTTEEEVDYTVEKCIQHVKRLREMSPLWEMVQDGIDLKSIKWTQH
UniProt Q9HD34, whole entry: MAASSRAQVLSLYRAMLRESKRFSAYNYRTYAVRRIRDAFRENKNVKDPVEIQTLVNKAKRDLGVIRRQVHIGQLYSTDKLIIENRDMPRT

Target: human cysteine desulfurase NFS1, mature form (NFS1Δ55) (human) (UniProt Q9Y697)
Assay: co-purification on Ni-NTA

Question: For “ISD11 (human LYR motif-containing protein 4) (from UniProt Q9HD34 1-91)”, which binding is on record?
Answer: Its binding is “binds”.
